PubChem BioAssay AID504793 – Drosophila RNAi Screening Center | 2011
Purpose: 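Genes required for cells to halt at G2/M after double-strand DNA breaks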 (primary screen). System: Drosophila S2R+ cells. Reagents: long dsRNA against Drosophila genes, about 0.25 µg dsRNA per well. Timing: 4 days of dsRNA, then 4 hours of drug before read-out. Treatment: doxorubicin 0.5 µM for 4 hours to cause double-strand breaks, in cells also given a low, harmless dose of dsRNA against nbs to sensitise the assay. Measured: 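Mitotic index as the number of phospho-histone H3-positive cells in each well following doxorubicin, given as raw counts without normalisation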. Direction: mitotic cells: higher = more cells in mitosis, weaker G2 arrest. Rule for the call: 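Genes are called active only when high mitotic counts were reproduced with independent dsRNAs and mitosis was checked for delay without damage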. Meaning of the calls: active = confirmed in follow-up tests; inactive = not confirmed.
The deposit covers about 23,000 reagents; this is a random part of those that have a named target and a result. Over the whole deposit, 62 (0.27%) are marked active. 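Calls come from follow-up tests whose scores are not deposited, so confirmed genes may have low counts here; counts are not normalised per plate.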 Raw values vary from plate to plate and are shown uncorrected. A number with no mark means an inactive call. Reagents against one gene are numbered here. Names joined by + are all predicted targets of the reagent. No sequences are given here.

Jon25Bi #1 → mitotic cells, replicate 1 = 7
Jon25Bi #2 → mitotic cells, replicate 1 = 7
Ufc1 → mitotic cells, replicate 1 = 10
CG31097 → mitotic cells, replicate 1 = 10
beta4GalNAcTA → mitotic cells, replicate 1 = 7
ppk #1 → mitotic cells, replicate 1 = 2
ppk #2 → mitotic cells, replicate 1 = 9
CR32028 (retired record) #1 → mitotic cells, replicate 1 = 10
CR32028 (retired record) #2 → mitotic cells, replicate 1 = 11
CG10513 → mitotic cells, replicate 1 = 5
CG13050 → mitotic cells, replicate 1 = 3
CG10931 → mitotic cells, replicate 1 = 5
CG31098 → mitotic cells, replicate 1 = 12
PolG1 #1 → mitotic cells, replicate 1 = 2
PolG1 #2 → mitotic cells, replicate 1 = 4
mRpL54 → mitotic cells, replicate 1 = 6
CG8673 → mitotic cells, replicate 1 = 8
CG6168 → mitotic cells, replicate 1 = 2
sisA #1 → mitotic cells, replicate 1 = 8
sisA #2 → mitotic cells, replicate 1 = 9
RanGAP #1 → mitotic cells, replicate 1 = 11
RanGAP #2 → mitotic cells, replicate 1 = 5
mbl #1 → mitotic cells, replicate 1 = 5
mbl #2 → mitotic cells, replicate 1 = 7
DUBAI + Tmem18 → mitotic cells, replicate 1 = 5
CG4613 #1 → mitotic cells, replicate 1 = 5
CG4613 #2 → mitotic cells, replicate 1 = 5
Nrx-IV → mitotic cells, replicate 1 = 4
CG8950 → mitotic cells, replicate 1 = 4
CG15084 #1 → mitotic cells, replicate 1 = 7
CG15084 #2 → mitotic cells, replicate 1 = 19
CG15084 #3 → mitotic cells, replicate 1 = 13
PIG-L #1 → mitotic cells, replicate 1 = 12
PIG-L #2 → mitotic cells, replicate 1 = 5
